Experimental data from US5795857A, “Mimetic insect pyrokinin analogs for insect control” (The United States of America as represented by the …, priority 1996, dated 1998).
Part of at least one peptide drawing is inferred or uncertain, most often the ends. No end group written: not given here.

Experiments:
corn earworm moth H. zea [1] = experiment: Pheromonotropic assay by injection in corn earworm moth (literature data); assay type: in vivo; details: versus HezPBAN in H. zea or carboranyl analog/HezPBAN in H. virescens
[2] = test system: isolated cockroach (Leucophaea maderae) hindgut; details: values printed with reference numbers; cited from earlier work
corn earworm moth H. zea [3] = details: cited from earlier work
[4] = test system: virgin females of Heliothis virescens; experiment: Pheromonotropic assay (injection); assay type: in vivo; details: 0.06-200 pmol, 60 min after injection, FIG. 5
Procedure: Pupae of H. virescens were obtained from a laboratory colony maintained at the Insect Attractants, Behavior and Basic Biology Research Laboratory, USDA-ARS, in Gainesville, Fla. The pupae were separated by sex and the males were discarded. After eclosion, the females were held in 4-1 cages and provided with cotton wicks soaked with 5% sucrose solution. The insects were held at 25°±2° C, 65±3% relative humidity with a 12:12 (L:D) photoperiod. […]
Pheromone biosynthesis neuropeptide from H. zea (Hez--PBAN) and the carboranyl pseudopeptide Cbe--Thr--Pro--Arg--Leu--NH2 were dissolved in physiological saline (Christensen et al., 1991, Proc. Natl. Acad. Sci. USA, 88:4971-4975). […] After 1 h of incubation, the terminal abdominal segments, which contain the pheromone gland, were excised and placed in 10 μl of hexane containing 10 ng each of internal standards (octadecane and nonadecane) used for quantitation and calculation of relative retention indices. The pheromone gland extracts were analyzed for the amount of (Z)-11-hexadecenal (Z11-16:AL), the major sex pheromone component of H. virescens (Klun et al., 1980, J. Chem. Ecol., 6:165-175) by capillary gas chromatography. […]
After the dose response of Hez--PBAN was completed, the […] dose was chosen to use for comparison with the carboranyl pseudopeptide assayed here. […] Data were analyzed using one-way ANOVA and t-test with "STATVIEW" software. […]

[5] = test system: virgin females of Heliothis virescens; experiment: Pheromonotropic assay (topical application); assay type: in vivo
Procedure: The amphiphilic carboranyl analog Cbe--Thr--Pro--Arg--Leu--NH2 was dissolved in water and solutions at concentrations of 5, 10, 25, 60, and 200 pmol/μl were prepared. The cuticular scales along the lateral side of the abdomen were removed with a 1 ml plastic pipet tip attached to house vacuum with a rubber hose. A low vacuum was applied to the apparatus and the pipet tip was gently passed over the cuticle until the scales were drawn by suction. After the scales were removed, 1 μl of peptide solution was applied to the surface of the cuticle and smoothed evenly over the prepared surface. […]
In initial studies we used dimethyl sulfoxide (DMSO) as a carrier to deliver Hez--PBAN or [6--Pha--Ala^0 ]Lom--MT--II for topical applications. […] We also assessed different carrier solvents for their ability to deliver these two peptides. […] Extracts were analyzed for the amount of pheromone as above.
The use of water as a carrier for [6--Pha--Ala^0 ]Lom--MT--II was also assessed in dose response and temporal activity studies. […] The ability of the parent peptide, Lom--MT--II, to stimulate pheromone production when applied topically in water was assessed by applying doses of 50, 100, 250 and 500 pmol to the abdomen. […] After incubation the sex pheromone glands were excised, extracted and analyzed for the amount of pheromone.

## FTPRL-NH2 [Phe--Thr--Pro--Arg--Leu--NH2]
Corn earworm moth H. zea [1]
  fold greater dose required to achieve a 30% pheromonotropic titre than HezPBAN: 1800 fold
[2]
  Threshold Concentration, myostimulation of the isolated cockroach hindgut: 2,200 pM
Corn earworm moth H. zea [3]; H. zea, at 70 pmoles/female
  maximal response as share of the pheromone titre of PBAN: 30%
Corn earworm moth H. zea [3]; H. zea
  dose eliciting truncated maximal response, injection: 70 pmoles/female
Corn earworm moth H. zea [3]; data from H. zea
  Maximal Response via injection (dose): 70 pmol
Corn earworm moth H. zea [3]; data from the related corn earworm moth H. zea
  ED50, pheromone production via injection: 50 pmol

## EGDFTPRL-NH2 [Lom--MT--II, Glu--Gly--Asp--Phe--Thr--Pro--Arg--LeuNH2]
[4]
  pheromonotropic activity of injected peptide, compared: more potent pheromonotropin than Hez--PBAN
[5]; doses of 10-500 pmol in water, 60 min, FIG. 10
  pheromone versus water-only controls, topical in water, dose series: no insects treated by topical application of Lom--MT--II at doses of 10-500 pmol in water produced significantly more pheromone
[5]; water carrier
  pheromone production when applied to the surface of the cuticle in water: failed to stimulate production of significant amounts of pheromone
